# Assay results as given in publication PMC9587004.
# By UniProt entry, the sequences of proteins in these tests, tags left out.
# UniProt Q86WV6: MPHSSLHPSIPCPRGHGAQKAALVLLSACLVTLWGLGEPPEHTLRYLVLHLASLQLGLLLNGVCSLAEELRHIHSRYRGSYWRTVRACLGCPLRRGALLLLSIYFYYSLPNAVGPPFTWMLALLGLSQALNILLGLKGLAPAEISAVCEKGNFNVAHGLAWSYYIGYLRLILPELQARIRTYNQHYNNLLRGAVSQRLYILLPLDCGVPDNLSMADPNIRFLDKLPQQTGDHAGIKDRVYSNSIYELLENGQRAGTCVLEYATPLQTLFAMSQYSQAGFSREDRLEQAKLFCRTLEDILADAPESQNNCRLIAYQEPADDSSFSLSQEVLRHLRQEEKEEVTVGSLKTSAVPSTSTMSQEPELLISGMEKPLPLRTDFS
# UniProt Q99942: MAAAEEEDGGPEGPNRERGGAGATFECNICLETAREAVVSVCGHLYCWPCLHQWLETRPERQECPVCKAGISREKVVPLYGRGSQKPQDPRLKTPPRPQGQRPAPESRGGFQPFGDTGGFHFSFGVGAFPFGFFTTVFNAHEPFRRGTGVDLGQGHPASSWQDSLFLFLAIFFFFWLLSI
# Results are given in words; binding and its absence hold for the method and conditions named. Binding seen in cells or lysates may run through a third protein. Some entries that bind do so weakly or less than the wild type.
# Experiments:
# GST-HA-STING = GST-HA-STING (UniProt Q86WV6); assay: pull-down; GST-HA-STING on GST beads mixed with Flag-RNF5, overnight at 4 °C; washes with 150 mM NaCl, 0.2% Triton X-100; WB; only the target purified
# [1] = target: Flag-RNF5 (Ring-finger protein 5) (UniProt Q99942); assay: co-IP; HEK-293T cells co-transfected with Flag-RNF5 and Myc-STING plasmids; IP lysis buffer (20 mM Tris-HCl pH 7.4, 150 mM NaCl, 1 mM EDTA, 1% NP-40); Protein G-agarose beads and anti-label antibodies overnight at 4 °C; washes with 300 mM and 150 mM NaCl buffers; WB
binding (GST-HA-STING),binding [1],Substance
binds,–,Flag-RNF5 (for the GST pull-down) (from UniProt Q99942 1-180)
–,binds,Myc-STING (stimulator of interferon genes) (from UniProt Q86WV6 1-379)
